Experimental data from PubChem BioAssay AID540276 (National Center for Advancing Translational Sciences (NCATS), 2011).
Hit rate of the full screen: of about 300,000 compounds, about 5,400 (1.8%) were called active. This list was built around the results that the source calls inconclusive (neither active nor inactive); the mix of calls is not that of the screen. The call rests on the fitted dose curve; tested in HEK293 cells. Where the call is inconclusive, the potency comes from a doubtful curve fit.

experiment: qHTS for inhibitors of binding or entry into cells for Marburg Virus; settings: Marburg virus pseudotyped entry inhibition, cell reporter; activity change, negative = inhibition: at 37.8 µM (top of the series) unless noted
On the % scale 0 is the no-effect control and ±100 the full control effect; potency means the concentration at half of the fitted maximal effect.

Row | SMILES | Potency | activity change, negative = inhibition
1 | CCN(CC)CCn1c2c(c(SCC(=O)Nc3cc(C)ccc3C)nc1=O)CCC2 | inconclusive: 35.5 µM [inhibitor, partial curve, poor fit] | 
2 | COC(=O)C(NC(=O)CC(C)C)(Nc1nc2c(s1)CCCC2)C(F)(F)F (stereo not given) | inconclusive: 22.4 µM [inhibitor, partial curve, poor fit] | 
3 | CC(C)CNC(=O)c1c(N)n(Cc2ccc3c(c2)OCO3)c2nc3ccccc3nc12 | inconclusive: 29.1 µM [inhibitor, single point] | 
4 | Cc1[nH]nc2c1C(c1ccccn1)N(c1ccc(Br)cc1)C2=O (stereo not given) |  | inactive: 14.8%
5 | Cc1ccc(NC(=O)c2ccco2)c(NC(=O)c2ccc(Cl)cc2)c1 | inconclusive: 2.82 µM [activator, full curve] | 
6 | CCc1ccccc1NC(=O)CNC(=O)c1cn(Cc2ccccc2)nc1-c1cccnc1 | inconclusive: 0.282 µM [activator, partial curve, poor fit] | 
7 | CC(=O)c1cc2c(cc1N/C(=N/S(=O)(=O)c1ccc(C)cc1)c1ccccc1)OCO2 | inconclusive: 29.1 µM [inhibitor, partial curve, poor fit] | 
8 | COc1ccc(N(C)S(=O)(=O)c2cccc(C(=O)N(C)Cc3ccc(C)o3)c2)cc1 | inconclusive: 11.2 µM [inhibitor, partial curve, poor fit] | 
9 | Nc1c(C(=O)Nc2ccc3c(c2)OCCO3)nnn1Cc1ccccc1Cl | inconclusive: 0.631 µM [activator, single point] | 
10 | COc1ccccc1NS(=O)(=O)c1cc(NC(=O)CNC(=O)c2cc(C)cc(C)c2)ccc1C | inconclusive: 35.5 µM [inhibitor, single point] | 
11 | COc1cc(NS(=O)(=O)c2c(C(=O)N3CCOCC3)c(C)n(C)c2C)cc(OC)c1OC | inconclusive: 3.98 µM [inhibitor, single point] | 
12 | Cc1ccnc(NC(=O)c2cccc(S(=O)(=O)N3CCN(c4ccccc4)CC3)c2)c1 | inconclusive: 7.94 µM [inhibitor, partial curve, poor fit] | 
13 | COc1ccc(-c2cc(C(=O)Nc3nc4ccccc4s3)c3ccccc3n2)cc1OC | inconclusive: 29.1 µM [inhibitor, single point] | 
14 | CCOc1ccc(-c2nc(-c3ccc(OC)cc3)no2)cc1OCC |  | inactive: 7.27%
15 | Cc1ccc(C)c(-c2[nH]ncc2CN2CCCC(CO)(Cc3ccccc3C)C2)c1 (stereo not given) | active: 25.1 µM | 
16 | CN(Cc1ccc2c(c1)OCCO2)C(=O)CSc1ncnc2sccc12 |  | inactive: -33.7%
17 | CC(=O)N1CCc2cc(S(=O)(=O)NC(CC(C)C)C(=O)Nc3ccc4c(c3)OCCO4)ccc21 (stereo not given) |  | inactive: 9.47%
18 | COC(=O)c1c(C)oc2ccc(N(C(=O)c3ccncc3)S(=O)(=O)c3ccccc3)cc12 | inconclusive: 35.5 µM [inhibitor, single point] | 
19 | CC(C)CC(NC(=O)C(NC(=O)C1OC2OC(C)(C)OC2C2OC(C)(C)OC12)C(C)C)C(=O)O (stereo not given) |  | inactive: 2.78% [at 46.1 µM]
20 | Cn1nc(OC(=O)Nc2ccccc2)cc1C(F)(F)F |  | inactive: -1.92%

Row | SMILES | Potency | activity change, negative = inhibition
21 | CCOC(=O)c1c(C)[nH]c(C)c1C(=O)CSc1nc2ccccc2c(=O)n1-c1ccc(F)cc1 | inconclusive: 22.4 µM [inhibitor, single point] | 
22 | CC(C)CCN1CCN(Cc2cc(F)ccc2-n2cccn2)CC1CCO (stereo not given) | inconclusive: 4.47 µM [inhibitor, full curve, poor fit] | 
23 | c1ccc(CSCc2nc3ccccc3[nH]2)cc1 | inconclusive: 0.794 µM [activator, full curve, poor fit] | 
24 | CSc1ccccc1NC(=O)CN(C)Cc1cc(=O)n2ccsc2n1 | inconclusive: 3.98 µM [activator, single point] | 
25 | CCOc1cccc2sc(N(CCN(C)C)C(=O)/C=C/c3cccs3)nc12 | inconclusive: 5.01 µM [inhibitor, partial curve, poor fit] | 
26 | C[C@]12CC[C@H](O)CC1=C([N+](=O)[O-])CC1C2CC[C@@]2(C)C1CC[C@@H]2O (stereo not given in full) | inconclusive: 35.5 µM [inhibitor, single point] | 
27 | Cc1ccc(-c2cc(-c3ccccc3)c(C#N)c(Br)n2)cc1 | inconclusive: 0.112 µM [activator, full curve, poor fit] | 
28 | CN(C(=O)COC(=O)/C=C/c1ccc(S(=O)(=O)N2CCc3ccccc32)cc1)C1CCS(=O)(=O)C1 (stereo not given) |  | inactive: 20.4% [at 46.1 µM]
29 | CCOc1ccccc1CN(CCc1ccc2c(c1)OCO2)Cc1ccc(CC)cc1 |  | inactive: -30% [at 46.1 µM]
30 | CCOC(=O)c1nnn2c3ccccc3c(=O)n(C)c12 | inconclusive: 1.26 µM [inhibitor, single point] | 
31 | CCOC(=O)Cn1cc(C#N)c2cccc(CC)c21 | inconclusive: 14.1 µM [inhibitor, single point] | 
32 | O=C(CCn1c(=O)oc2ccccc21)n1c(=O)oc2ccccc21 |  | inactive: 7.44%
33 | COc1cc(C2C(C#N)=C(N)N(c3cccnc3)C3=C2C(=O)CCC3)ccc1O (stereo not given) |  | inactive: 0.568%
34 | CC1CCN(S(=O)(=O)c2ccc(NC(=O)CCNC(=O)c3ccc(Cl)cc3)cc2)CC1 | inconclusive: 1.12 µM [inhibitor, partial curve, poor fit] | 
35 | NCCNc1ccc([N+](=O)[O-])c(Sc2nc3ccccc3[nH]2)c1 |  | inactive: -18.9%
36 | COc1ccc(CNC(=O)CN(Cc2ccco2)C(=O)CNS(=O)(=O)c2ccccc2)cc1 | inconclusive: 2.82 µM [inhibitor, full curve, poor fit] | 
37 | Cc1ccc2c(c1)cc(CN(Cc1ccco1)C(=O)COc1ccccc1)c1nnnn12 | inconclusive: 16.4 µM [inhibitor, partial curve, poor fit] | 
38 | Cc1ccc(C)c(CSc2ccc3nnc(-c4ccccn4)n3n2)c1 | inconclusive: 0.178 µM [inhibitor, full curve, poor fit] | 
39 | COc1ccc(N(C(=O)c2cc3ccccc3oc2=O)C2C=CS(=O)(=O)C2)c(OC)c1 (stereo not given) | inconclusive: 2.82 µM [activator, single point] | 
40 | COc1ccccc1NS(=O)(=O)c1cccc(C(=O)N/N=C(\C)c2ccc(-n3ccnc3)cc2)c1 | inconclusive: 16.4 µM [inhibitor, single point] | 

Part of the list above, tab-delimited:
Row	SMILES	Potency	activity change, negative = inhibition
33	COc1cc(C2C(C#N)=C(N)N(c3cccnc3)C3=C2C(=O)CCC3)ccc1O (stereo not given)		inactive: 0.568%
40	COc1ccccc1NS(=O)(=O)c1cccc(C(=O)N/N=C(\C)c2ccc(-n3ccnc3)cc2)c1	inconclusive: 16.4 µM [inhibitor, single point]	
